This continues a long series; more values of the same kind are listed elsewhere.
Legend:
Format in all cases: cell-based
Conditions in all cases: U-87MG ATCC
[1] = Inhibition of RTK/PI3K/AKT/mTOR signaling in human U87 cells assessed as up regulation of bone morphogenetic protein 4 gene expression at cytotoxic IC50 measured after 48 hrs relative to control
[2] = Inhibition of RTK/PI3K/AKT/mTOR signaling in human U87 cells assessed as down regulation of HIF1A gene expression at cytotoxic IC50 measured after 48 hrs relative to control
[3] = Inhibition of RTK/PI3K/AKT/mTOR signaling in human U87 cells assessed as down regulation of PRPF38A gene expression at cytotoxic IC50 measured after 48 hrs relative to control
[4] = Inhibition of RTK/PI3K/AKT/mTOR signaling in human U87 cells assessed as up regulation of THAP domain containing 11 gene expression at cytotoxic IC50 measured after 48 hrs relative to control
[5] = Inhibition of RTK/PI3K/AKT/mTOR signaling in human U87 cells assessed as down regulation of TAF5 gene expression at cytotoxic IC50 measured after 48 hrs relative to control
[6] = Inhibition of RTK/PI3K/AKT/mTOR signaling in human U87 cells assessed as up regulation of 7-dehydrocholesterol reductase gene expression at cytotoxic IC50 measured after 48 hrs relative to control
[7] = Inhibition of RTK/PI3K/AKT/mTOR signaling in human U87 cells assessed as down regulation of CBFB gene expression at cytotoxic IC50 measured after 48 hrs relative to control
[8] = Inhibition of RTK/PI3K/AKT/mTOR signaling in human U87 cells assessed as down regulation of C18orf8 gene expression at cytotoxic IC50 measured after 48 hrs relative to control
[9] = Inhibition of RTK/PI3K/AKT/mTOR signaling in human U87 cells assessed as up regulation of SLC35E1 gene expression at cytotoxic IC50 measured after 48 hrs relative to control
[10] = Inhibition of RTK/PI3K/AKT/mTOR signaling in human U87 cells assessed as up regulation of PDE2A gene expression at cytotoxic IC50 measured after 48 hrs relative to control
[11] = Inhibition of RTK/PI3K/AKT/mTOR signaling in human U87 cells assessed as up regulation of topoisomerase (DNA) I gene expression at cytotoxic IC50 measured after 48 hrs relative to control
[12] = Inhibition of RTK/PI3K/AKT/mTOR signaling in human U87 cells assessed as up regulation of keratin 15 gene expression at cytotoxic IC50 measured after 48 hrs relative to control
[13] = Inhibition of RTK/PI3K/AKT/mTOR signaling in human U87 cells assessed as up regulation of CTNNAL1 gene expression at cytotoxic IC50 measured after 48 hrs relative to control
[14] = Inhibition of RTK/PI3K/AKT/mTOR signaling in human U87 cells assessed as down regulation of LIG4 gene expression at cytotoxic IC50 measured after 48 hrs relative to control
[15] = Inhibition of RTK/PI3K/AKT/mTOR signaling in human U87 cells assessed as down regulation of NUP107 gene expression at cytotoxic IC50 measured after 48 hrs relative to control
[16] = Inhibition of RTK/PI3K/AKT/mTOR signaling in human U87 cells assessed as down regulation of SLC9A3R1 gene expression at cytotoxic IC50 measured after 48 hrs relative to control
[17] = Inhibition of RTK/PI3K/AKT/mTOR signaling in human U87 cells assessed as up regulation of PAN2 poly(A) specific ribonuclease subunit gene expression at cytotoxic IC50 measured after 48 hrs relative to control
[18] = Inhibition of RTK/PI3K/AKT/mTOR signaling in human U87 cells assessed as down regulation of STRAP gene expression at cytotoxic IC50 measured after 48 hrs relative to control
[19] = Inhibition of RTK/PI3K/AKT/mTOR signaling in human U87 cells assessed as down regulation of KIFC1 gene expression at cytotoxic IC50 measured after 48 hrs relative to control
[20] = Inhibition of RTK/PI3K/AKT/mTOR signaling in human U87 cells assessed as up regulation of melanophilin gene expression at cytotoxic IC50 measured after 48 hrs relative to control
[21] = Inhibition of RTK/PI3K/AKT/mTOR signaling in human U87 cells assessed as up regulation of melanoma associated antigen (mutated) 1 gene expression at cytotoxic IC50 measured after 48 hrs relative to control
[22] = Inhibition of RTK/PI3K/AKT/mTOR signaling in human U87 cells assessed as down regulation of FAM126A gene expression at cytotoxic IC50 measured after 48 hrs relative to control
[23] = Inhibition of RTK/PI3K/AKT/mTOR signaling in human U87 cells assessed as up regulation of RPL21 gene expression at cytotoxic IC50 measured after 48 hrs relative to control
[24] = Inhibition of RTK/PI3K/AKT/mTOR signaling in human U87 cells assessed as down regulation of ARHGDIA gene expression at cytotoxic IC50 measured after 48 hrs relative to control
[25] = Inhibition of RTK/PI3K/AKT/mTOR signaling in human U87 cells assessed as down regulation of SOD1 gene expression at cytotoxic IC50 measured after 48 hrs relative to control
[26] = Inhibition of RTK/PI3K/AKT/mTOR signaling in human U87 cells assessed as down regulation of STK38L gene expression at cytotoxic IC50 measured after 48 hrs relative to control
[27] = Inhibition of RTK/PI3K/AKT/mTOR signaling in human U87 cells assessed as up regulation of transcription factor 7 like 2 gene expression at cytotoxic IC50 measured after 48 hrs relative to control
[28] = Inhibition of RTK/PI3K/AKT/mTOR signaling in human U87 cells assessed as up regulation of olfactomedin like 2A gene expression at cytotoxic IC50 measured after 48 hrs relative to control
[29] = Inhibition of RTK/PI3K/AKT/mTOR signaling in human U87 cells assessed as down regulation of ERP44 gene expression at cytotoxic IC50 measured after 48 hrs relative to control
[30] = Inhibition of RTK/PI3K/AKT/mTOR signaling in human U87 cells assessed as up regulation of hematopoietic SH2 domain containing gene expression at cytotoxic IC50 measured after 48 hrs relative to control
[31] = Inhibition of RTK/PI3K/AKT/mTOR signaling in human U87 cells assessed as down regulation of ZNF213 gene expression at cytotoxic IC50 measured after 48 hrs relative to control
[32] = Inhibition of RTK/PI3K/AKT/mTOR signaling in human U87 cells assessed as down regulation of LOC105377348 gene expression at cytotoxic IC50 measured after 48 hrs relative to control

Which log2FC [1] does the source give for `CC(=O)C(=NNc1ccccc1C#N)C(C)=O` here?
The log2FC was 1.55.

What about the log2FC [2] of the same compound?
The log2FC was -0.556.

What about the log2FC [3] of the same compound?
The log2FC was -0.734.

And the log2FC [4]?
Its log2FC is 1.

And the log2FC [5]?
The log2FC was -1.65.

What about the log2FC [6] of the same compound?
Its log2FC is 0.745.

What about the log2FC [7] of the same compound?
Its log2FC is -0.532.

What about the log2FC [8] of the same compound?
Its log2FC is -0.921.

And the log2FC [9]?
The log2FC was 0.62.

What about the log2FC [10] of the same compound?
The log2FC was 1.95.

And the log2FC [11]?
Its log2FC is 0.829.

And the log2FC [12]?
Its log2FC is 1.33.

What about the log2FC [13] of the same compound?
The log2FC was 0.446.

What about the log2FC [14] of the same compound?
The log2FC was -1.22.

What about the log2FC [15] of the same compound?
The log2FC was -0.605.

And the log2FC [16]?
Its log2FC is -0.608.

What about the log2FC [17] of the same compound?
The log2FC was 0.963.

What about the log2FC [18] of the same compound?
The log2FC was -0.568.

What about the log2FC [19] of the same compound?
Its log2FC is -0.637.

And the log2FC [20]?
The log2FC was 1.34.

What about the log2FC [21] of the same compound?
Its log2FC is 0.744.

What about the log2FC [22] of the same compound?
Its log2FC is -0.587.

What about the log2FC [23] of the same compound?
Its log2FC is 0.402.

What about the log2FC [24] of the same compound?
The log2FC was -0.684.

And the log2FC [25]?
Its log2FC is -0.451.

And the log2FC [26]?
Its log2FC is -0.661.

And the log2FC [27]?
The log2FC was 1.1.

What about the log2FC [28] of the same compound?
The log2FC was 1.07.

What about the log2FC [29] of the same compound?
The log2FC was -0.504.

What about the log2FC [30] of the same compound?
Its log2FC is 1.11.

And the log2FC [31]?
The log2FC was -1.26.

What about the log2FC [32] of the same compound?
Its log2FC is -2.76.

Source: ChEMBL document CHEMBL4316593 (Eur J Med Chem, 2019)
